The text below walks through data of publication PMC11257983 (2024).

The target of assay [1] is T1, GST-HYP (Drosophila) (UniProt Q8ML92).
T1 sequence: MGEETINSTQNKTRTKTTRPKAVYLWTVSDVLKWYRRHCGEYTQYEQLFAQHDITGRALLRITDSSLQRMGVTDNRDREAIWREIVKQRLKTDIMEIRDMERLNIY
The assay can be described thus: pull-down; GST-HYP as bait, CNK^2–549 co-expressed in S2 cells with Ha-RAS^V12, Pyo-RAF, V5-KSR and Myc-MEK (RRKM); total lysates, overnight at 4 °C; immunoblot. A general note: Immunoblotting shows a protein as a band on a membrane.

In assay [2] the target is T1, GST-HYP (Drosophila). The assay can be described thus: pull-down; GST-HYP as bait, Flag-CNK^2–549 variants co-expressed in S2 cells without other pathway components (binary CNK–HYP interaction); total lysates, overnight at 4 °C; immunoblot.

These are yes or no findings as the source states them, for the method shown. In cells and extracts the contact can be indirect. Some entries that bind do so weakly or less than the wild type. Tags and fused reporters may be left off the sequences shown.

B1: Flag-CNK^2–549 I123D (domain or fragment, UniProt Q7KNQ9 2-549)
chain: AYINIAEWTPDQVTDWIKGLDESMKGYLYEFSKQEIGGRALLNIRPYELENLGMLRIGHQEIVLEAVENLRNFHYHLKNDNLQFMALHVATAAKNLHRELARNHAESTKIDTRILHDITRTDATLKPLVGSLERTPFRKQEMYREYCGNVLKCGLELATIAHRDRFALQPVPAIRQSAERLENLANFVIQDISDPMVLQPASLNLVTLKKRESELGFNIESSYNGIHRVTDIKYNSPAHNSGKIEDGDEIVQINYQTVVGWQHRTVLEHLREALPDVVLTVKKRPKHTKMFGQIYMQPYRLPSKKRNMAARWAAQMPSPRAAFLTLDTEQLATGGTGSAVPDPSKSLSSEKREVLTKANPVSSASDSDSSCSDIPTPTDPKLAAREIRLYYPKPRALLQRRNTICGCEYLSLKNSDLVVPSWHERKPGIGSPTNCDPGSPSIRDKSISFGYGLEMAARPTTCIGIAGDTSTDKARRMFHEARKLKQLTEDSQREFLVDRYKPGVSKVVRFDAKEDYVMKNEKFICNVENTILETFEPIPFADEGDEDA
Turning to B1, the binding entry with GST-HYP (Drosophila) [1] and with GST-HYP (Drosophila) [2] was “binds” throughout.

B2: Flag-CNK^2–549 L152D (domain or fragment, UniProt Q7KNQ9 2-549)
chain: AYINIAEWTPDQVTDWIKGLDESMKGYLYEFSKQEIGGRALLNIRPYELENLGMLRIGHQEIVLEAVENLRNFHYHLKNDNLQFMALHVATAAKNLHRELARNHAESTKIDTRILHDITRTIATLKPLVGSLERTPFRKQEMYREYCGNVDKCGLELATIAHRDRFALQPVPAIRQSAERLENLANFVIQDISDPMVLQPASLNLVTLKKRESELGFNIESSYNGIHRVTDIKYNSPAHNSGKIEDGDEIVQINYQTVVGWQHRTVLEHLREALPDVVLTVKKRPKHTKMFGQIYMQPYRLPSKKRNMAARWAAQMPSPRAAFLTLDTEQLATGGTGSAVPDPSKSLSSEKREVLTKANPVSSASDSDSSCSDIPTPTDPKLAAREIRLYYPKPRALLQRRNTICGCEYLSLKNSDLVVPSWHERKPGIGSPTNCDPGSPSIRDKSISFGYGLEMAARPTTCIGIAGDTSTDKARRMFHEARKLKQLTEDSQREFLVDRYKPGVSKVVRFDAKEDYVMKNEKFICNVENTILETFEPIPFADEGDEDA
For the molecule B2, the binding result in the assay with GST-HYP (Drosophila) [1] and with GST-HYP (Drosophila) [2] was “binds” throughout.

B3: Flag-CNK^2–549 M197E (domain or fragment, UniProt Q7KNQ9 2-549)
chain: AYINIAEWTPDQVTDWIKGLDESMKGYLYEFSKQEIGGRALLNIRPYELENLGMLRIGHQEIVLEAVENLRNFHYHLKNDNLQFMALHVATAAKNLHRELARNHAESTKIDTRILHDITRTIATLKPLVGSLERTPFRKQEMYREYCGNVLKCGLELATIAHRDRFALQPVPAIRQSAERLENLANFVIQDISDPEVLQPASLNLVTLKKRESELGFNIESSYNGIHRVTDIKYNSPAHNSGKIEDGDEIVQINYQTVVGWQHRTVLEHLREALPDVVLTVKKRPKHTKMFGQIYMQPYRLPSKKRNMAARWAAQMPSPRAAFLTLDTEQLATGGTGSAVPDPSKSLSSEKREVLTKANPVSSASDSDSSCSDIPTPTDPKLAAREIRLYYPKPRALLQRRNTICGCEYLSLKNSDLVVPSWHERKPGIGSPTNCDPGSPSIRDKSISFGYGLEMAARPTTCIGIAGDTSTDKARRMFHEARKLKQLTEDSQREFLVDRYKPGVSKVVRFDAKEDYVMKNEKFICNVENTILETFEPIPFADEGDEDA
Regarding B3, in the assay with GST-HYP (Drosophila) [2], the binding result is on record as “binds”.

B4: Flag-CNK^2–549 V198E (domain or fragment, UniProt Q7KNQ9 2-549)
chain: AYINIAEWTPDQVTDWIKGLDESMKGYLYEFSKQEIGGRALLNIRPYELENLGMLRIGHQEIVLEAVENLRNFHYHLKNDNLQFMALHVATAAKNLHRELARNHAESTKIDTRILHDITRTIATLKPLVGSLERTPFRKQEMYREYCGNVLKCGLELATIAHRDRFALQPVPAIRQSAERLENLANFVIQDISDPMELQPASLNLVTLKKRESELGFNIESSYNGIHRVTDIKYNSPAHNSGKIEDGDEIVQINYQTVVGWQHRTVLEHLREALPDVVLTVKKRPKHTKMFGQIYMQPYRLPSKKRNMAARWAAQMPSPRAAFLTLDTEQLATGGTGSAVPDPSKSLSSEKREVLTKANPVSSASDSDSSCSDIPTPTDPKLAAREIRLYYPKPRALLQRRNTICGCEYLSLKNSDLVVPSWHERKPGIGSPTNCDPGSPSIRDKSISFGYGLEMAARPTTCIGIAGDTSTDKARRMFHEARKLKQLTEDSQREFLVDRYKPGVSKVVRFDAKEDYVMKNEKFICNVENTILETFEPIPFADEGDEDA
For B4, the binding result with GST-HYP (Drosophila) [2] is “binds”.

B5: Flag-CNK^2–549 D195K (domain or fragment, UniProt Q7KNQ9 2-549)
chain: AYINIAEWTPDQVTDWIKGLDESMKGYLYEFSKQEIGGRALLNIRPYELENLGMLRIGHQEIVLEAVENLRNFHYHLKNDNLQFMALHVATAAKNLHRELARNHAESTKIDTRILHDITRTIATLKPLVGSLERTPFRKQEMYREYCGNVLKCGLELATIAHRDRFALQPVPAIRQSAERLENLANFVIQDISKPMVLQPASLNLVTLKKRESELGFNIESSYNGIHRVTDIKYNSPAHNSGKIEDGDEIVQINYQTVVGWQHRTVLEHLREALPDVVLTVKKRPKHTKMFGQIYMQPYRLPSKKRNMAARWAAQMPSPRAAFLTLDTEQLATGGTGSAVPDPSKSLSSEKREVLTKANPVSSASDSDSSCSDIPTPTDPKLAAREIRLYYPKPRALLQRRNTICGCEYLSLKNSDLVVPSWHERKPGIGSPTNCDPGSPSIRDKSISFGYGLEMAARPTTCIGIAGDTSTDKARRMFHEARKLKQLTEDSQREFLVDRYKPGVSKVVRFDAKEDYVMKNEKFICNVENTILETFEPIPFADEGDEDA
With B5, the binding entry with GST-HYP (Drosophila) [2] is on record as “binds”.

B6: Flag-CNK^2–549 Q200A (domain or fragment, UniProt Q7KNQ9 2-549)
chain: AYINIAEWTPDQVTDWIKGLDESMKGYLYEFSKQEIGGRALLNIRPYELENLGMLRIGHQEIVLEAVENLRNFHYHLKNDNLQFMALHVATAAKNLHRELARNHAESTKIDTRILHDITRTIATLKPLVGSLERTPFRKQEMYREYCGNVLKCGLELATIAHRDRFALQPVPAIRQSAERLENLANFVIQDISDPMVLAPASLNLVTLKKRESELGFNIESSYNGIHRVTDIKYNSPAHNSGKIEDGDEIVQINYQTVVGWQHRTVLEHLREALPDVVLTVKKRPKHTKMFGQIYMQPYRLPSKKRNMAARWAAQMPSPRAAFLTLDTEQLATGGTGSAVPDPSKSLSSEKREVLTKANPVSSASDSDSSCSDIPTPTDPKLAAREIRLYYPKPRALLQRRNTICGCEYLSLKNSDLVVPSWHERKPGIGSPTNCDPGSPSIRDKSISFGYGLEMAARPTTCIGIAGDTSTDKARRMFHEARKLKQLTEDSQREFLVDRYKPGVSKVVRFDAKEDYVMKNEKFICNVENTILETFEPIPFADEGDEDA
Consider B6, for which, in the assay with GST-HYP (Drosophila) [2], the binding result is “binds”.

B7: Flag-CNK^2–549 K283D (domain or fragment, UniProt Q7KNQ9 2-549)
chain: AYINIAEWTPDQVTDWIKGLDESMKGYLYEFSKQEIGGRALLNIRPYELENLGMLRIGHQEIVLEAVENLRNFHYHLKNDNLQFMALHVATAAKNLHRELARNHAESTKIDTRILHDITRTIATLKPLVGSLERTPFRKQEMYREYCGNVLKCGLELATIAHRDRFALQPVPAIRQSAERLENLANFVIQDISDPMVLQPASLNLVTLKKRESELGFNIESSYNGIHRVTDIKYNSPAHNSGKIEDGDEIVQINYQTVVGWQHRTVLEHLREALPDVVLTVDKRPKHTKMFGQIYMQPYRLPSKKRNMAARWAAQMPSPRAAFLTLDTEQLATGGTGSAVPDPSKSLSSEKREVLTKANPVSSASDSDSSCSDIPTPTDPKLAAREIRLYYPKPRALLQRRNTICGCEYLSLKNSDLVVPSWHERKPGIGSPTNCDPGSPSIRDKSISFGYGLEMAARPTTCIGIAGDTSTDKARRMFHEARKLKQLTEDSQREFLVDRYKPGVSKVVRFDAKEDYVMKNEKFICNVENTILETFEPIPFADEGDEDA
For B7, the binding result with GST-HYP (Drosophila) [2] is “binds”.

B8: Flag-CNK^2–549 D81R_K283D (domain or fragment, UniProt Q7KNQ9 2-549)
chain: AYINIAEWTPDQVTDWIKGLDESMKGYLYEFSKQEIGGRALLNIRPYELENLGMLRIGHQEIVLEAVENLRNFHYHLKNRNLQFMALHVATAAKNLHRELARNHAESTKIDTRILHDITRTIATLKPLVGSLERTPFRKQEMYREYCGNVLKCGLELATIAHRDRFALQPVPAIRQSAERLENLANFVIQDISDPMVLQPASLNLVTLKKRESELGFNIESSYNGIHRVTDIKYNSPAHNSGKIEDGDEIVQINYQTVVGWQHRTVLEHLREALPDVVLTVDKRPKHTKMFGQIYMQPYRLPSKKRNMAARWAAQMPSPRAAFLTLDTEQLATGGTGSAVPDPSKSLSSEKREVLTKANPVSSASDSDSSCSDIPTPTDPKLAAREIRLYYPKPRALLQRRNTICGCEYLSLKNSDLVVPSWHERKPGIGSPTNCDPGSPSIRDKSISFGYGLEMAARPTTCIGIAGDTSTDKARRMFHEARKLKQLTEDSQREFLVDRYKPGVSKVVRFDAKEDYVMKNEKFICNVENTILETFEPIPFADEGDEDA
Regarding B8, the binding entry with GST-HYP (Drosophila) [1] and with GST-HYP (Drosophila) [2] was “binds” throughout.

B9: Flag-CNK^2–549 D81R (domain or fragment, UniProt Q7KNQ9 2-549)
chain: AYINIAEWTPDQVTDWIKGLDESMKGYLYEFSKQEIGGRALLNIRPYELENLGMLRIGHQEIVLEAVENLRNFHYHLKNRNLQFMALHVATAAKNLHRELARNHAESTKIDTRILHDITRTIATLKPLVGSLERTPFRKQEMYREYCGNVLKCGLELATIAHRDRFALQPVPAIRQSAERLENLANFVIQDISDPMVLQPASLNLVTLKKRESELGFNIESSYNGIHRVTDIKYNSPAHNSGKIEDGDEIVQINYQTVVGWQHRTVLEHLREALPDVVLTVKKRPKHTKMFGQIYMQPYRLPSKKRNMAARWAAQMPSPRAAFLTLDTEQLATGGTGSAVPDPSKSLSSEKREVLTKANPVSSASDSDSSCSDIPTPTDPKLAAREIRLYYPKPRALLQRRNTICGCEYLSLKNSDLVVPSWHERKPGIGSPTNCDPGSPSIRDKSISFGYGLEMAARPTTCIGIAGDTSTDKARRMFHEARKLKQLTEDSQREFLVDRYKPGVSKVVRFDAKEDYVMKNEKFICNVENTILETFEPIPFADEGDEDA
For the molecule B9, the binding result with GST-HYP (Drosophila) [2] is on record as “binds”.
